# Results deposited as PubChem BioAssay AID504744 (Drosophila RNAi Screening Center, 2011)
# Aim: 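Uncover factors, including feedback loops, that control dAkt activation in fly cells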 (primary screen)
# System: Drosophila Kc167 cells
# Reagents: long dsRNA against Drosophila genes, 250 ng dsRNA per well of a 384-well plate
# Duration: 3 days of knock-down, then overnight serum-free starvation before stimulation
# Treatment: bovine insulin at 387 nM for 10 minutes after 12 h without serum
# Measured: 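In-cell antibody fluorescence for phospho-dAkt in each well over DNA-dye signal, with log2 residuals expressed as z-scores adjusted for cell count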
# Call rule: 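Under insulin, a gene counts as a hit if the average z-score of two replicates lies above 2.5 or below -2.5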
# The deposit covers about 23,000 reagents; this is a random part of those with a known target gene and a result. In the full data, 98 (0.43%) are marked active. 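Only hit calls are given; the phospho-dAkt signals, z-scores and hit direction were not deposited.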 A plus sign joins genes that one reagent is predicted to hit.
target,dsRNA,Outcome
CG17105,DRSC02574,inactive
gcm2,DRSC03538,inactive
CG30379,DRSC05070,inactive
Sec5 (Secretory 5),DRSC00714,inactive
Crtc (CREB-regulated transcription coactivator),DRSC10578,inactive
Spase22-23 (Spase 22/23-subunit),DRSC15857,inactive
klg (klingon),DRSC13591,inactive
klg (klingon),DRSC16978,inactive
CG18367,DRSC06545,inactive
"IP3K1 (Inositol 1,4,5-triphosphate kinase 1)",DRSC02734,inactive
CG3337,DRSC15478,inactive
Idgf6 (Imaginal disc growth factor 6),DRSC07360,inactive
MCPH1 (Microcephalin),DRSC06309,inactive
MCPH1 (Microcephalin),DRSC07308,inactive
MCPH1 (Microcephalin),DRSC22536,inactive
CG14803,DRSC18556,inactive
Recs1,DRSC16545,inactive
hyx (hyrax),DRSC14462,inactive
GstD5 (Glutathione S transferase D5),DRSC16686,inactive
CG3987,DRSC15531,inactive
CG10910,DRSC06007,inactive
Cam (Calmodulin),DRSC07353,inactive
Cam (Calmodulin),DRSC07354,inactive
Mics1 (Mitochondrial morphology and cristae structure 1),DRSC12537,inactive
CG10907,DRSC09804,inactive
CG13323,DRSC06360,inactive
CG2854,DRSC18595,inactive
CG7110,DRSC03011,inactive
CG7110,DRSC03012,inactive
CG30161,DRSC22141,inactive
trsn (translin),DRSC06078,inactive
Nsf2 (N-ethylmaleimide-sensitive factor 2),DRSC22104,inactive
dpr11 (defective proboscis extension response 11),DRSC12561,inactive
dpr11 (defective proboscis extension response 11),DRSC12562,inactive
dpr11 (defective proboscis extension response 11),DRSC12563,inactive
CG14634,DRSC17944,inactive
Rbcn-3B (Rabconnectin-3B),DRSC18574,inactive
CG42749,DRSC18091,inactive
CG42749,DRSC18092,inactive
Cyp301a1 (Cytochrome P450 301a1),DRSC07365,inactive
TH1,DRSC20289,inactive
CG9777,DRSC20208,inactive
Cog2 (Component of oligomeric golgi complex 2),DRSC16987,inactive
CG6503,DRSC16056,inactive
CG10053,DRSC12502,inactive
CG8300,DRSC18426,inactive
CG1764,DRSC19779,inactive
ValRS (Valyl-tRNA synthetase),DRSC06864,inactive
CG14115,DRSC10118,inactive
CG1971,DRSC15406,inactive
B-H2 (BarH2),DRSC19335,inactive
Cep290 (Centrosomal protein 290kDa),DRSC08359,inactive
CG15147,DRSC02447,inactive
CG15147,DRSC02448,inactive
Dr (Drop),DRSC17002,inactive
Dr (Drop),DRSC22708,inactive
CR33283 (pseudo),DRSC22918,inactive
CG5404,DRSC15793,inactive
Ccp84Aa,DRSC12586,inactive
Smr (Smrter),DRSC19495,inactive
Smr (Smrter),DRSC20288,inactive
CG7675,DRSC16280,inactive
EMC1 (ER membrane protein complex subunit 1),DRSC15455,inactive
PLCXD,DRSC02427,inactive
Ir94b (Ionotropic receptor 94b),DRSC21439,inactive
CG13896,DRSC08366,inactive
mRpL1 (mitochondrial ribosomal protein L1),DRSC16251,inactive
CG42542,DRSC15549,inactive
CG42542,DRSC22264,inactive
Ir41a (Ionotropic receptor 41a),DRSC04730,inactive
Ir41a (Ionotropic receptor 41a),DRSC04875,inactive
"E(spl)malpha-BFM (Enhancer of split malpha, Bearded family member)",DRSC16994,inactive
CG7079,DRSC16192,inactive
CG11373,DRSC12170,inactive
CG13901,DRSC08371,inactive
Adck1 (aarF domain containing kinase 1),DRSC04394,inactive
side (sidestep),DRSC14523,inactive
side (sidestep),DRSC14716,inactive
side (sidestep),DRSC14717,inactive
side (sidestep),DRSC14718,inactive
side (sidestep),DRSC14721,inactive
Polr1A (RNA polymerase I subunit A),DRSC07535,inactive
Smug,DRSC15762,inactive
CG43328,DRSC05640,inactive
CG15544,DRSC15082,inactive
CG4404,DRSC19897,inactive
Mp (Multiplexin),DRSC10193,inactive
Mp (Multiplexin),DRSC11029,inactive
Mp (Multiplexin),DRSC11030,inactive
Paip1 (Poly(A) binding protein interacting protein 1),DRSC07302,inactive
Elp5 (Elongator complex protein 5),DRSC08547,inactive
Gr93b (Gustatory receptor 93b),DRSC22063,inactive
CG13461,DRSC10008,inactive
CG32187,DRSC10521,inactive
"E(spl)m2-BFM (Enhancer of split m2, Bearded family member)",DRSC16991,inactive
CG11694,DRSC14354,inactive
CG33257,DRSC09917,inactive
CG3706,DRSC18649,inactive
ric8b + ric8a,DRSC18104,inactive
CG10527,DRSC04078,inactive
CG42238,DRSC03180,inactive
Tango4 (Transport and Golgi organization 4),DRSC19786,inactive
roh (reduction of Rh1),DRSC04003,inactive
CG12391,DRSC06147,inactive
CG1092,DRSC12151,inactive
Rab14,DRSC03403,inactive
Npc2e (Niemann-Pick type C-2e),DRSC15522,inactive
Npc2e (Niemann-Pick type C-2e),DRSC22338,inactive
CG14568,DRSC11729,inactive
"Prosalpha3T (Proteasome alpha3 subunit, Testis-specific)",DRSC15226,inactive
RabX1,DRSC04678,inactive
shams,DRSC16590,inactive
PIG-Wb (Phosphatidylinositol glycan anchor biosynthesis class W b),DRSC08526,inactive
CG13016,DRSC06271,inactive
CG14262,DRSC14757,inactive
Sh (Shaker),DRSC19214,inactive
Sh (Shaker),DRSC19220,inactive
Sh (Shaker),DRSC19785,inactive
Sh (Shaker),DRSC20055,inactive
Sh (Shaker),DRSC22567,inactive
trio,DRSC07928,inactive
trio,DRSC08527,inactive
trio,DRSC08740,inactive
Nup44A (Nucleoporin at 44A),DRSC07248,inactive
CG5515,DRSC15825,inactive
unc-104 (uncoordinated-104),DRSC07710,inactive
fand (fandango),DRSC06967,inactive
CG18139 (retired record) + Hmx,DRSC15307,inactive
ubl (ubiquitin like),DRSC04998,inactive
ppk (pickpocket),DRSC03595,inactive
Srg3 (Sting-regulated gene 3),DRSC08984,inactive
Srg3 (Sting-regulated gene 3),DRSC10178,inactive
cv-2 (crossveinless 2),DRSC03861,inactive
cv-2 (crossveinless 2),DRSC04261,inactive
COX6AL (Cytochrome c oxidase subunit 6A-like),DRSC21454,inactive
CG1688,DRSC05934,inactive
CG3726,DRSC18320,inactive
CarT (Carcinine transporter),DRSC03196,inactive
CG4793,DRSC01966,inactive
Rab19,DRSC11260,inactive
CG17658,DRSC04292,inactive
Sox100B,DRSC15090,inactive
Sox100B,DRSC16866,inactive
CG14259,DRSC14754,inactive
frm (farmer),DRSC09753,inactive
AnxB10 (Annexin B10),DRSC20677,inactive
CG13833,DRSC14683,inactive
CalpB (Calpain-B),DRSC11109,inactive
mRpL35 (mitochondrial ribosomal protein L35),DRSC14586,inactive
"Pka-C3 (Protein kinase, cAMP-dependent, catalytic subunit 3)",DRSC09402,inactive
"Pka-C3 (Protein kinase, cAMP-dependent, catalytic subunit 3)",DRSC11254,inactive
beat-IIIc (beaten path IIIc),DRSC02438,inactive
beat-IIIc (beaten path IIIc),DRSC02949,inactive
Ctns (Cystinosin),DRSC15175,inactive
Mmp1 (Matrix metalloproteinase 1),DRSC04493,inactive
PolA1 (DNA polymerase alpha subunit 1),DRSC16640,inactive
SMC6 (Structural maintenance of chromosomes 6),DRSC15829,inactive

20 entries from above, reformatted.
CG11373 [DRSC12170] → Outcome = inactive
CG13901 [DRSC08371] → Outcome = inactive
Adck1 (aarF domain containing kinase 1) [DRSC04394] → Outcome = inactive
side (sidestep) [DRSC14523] → Outcome = inactive
side (sidestep) [DRSC14716] → Outcome = inactive
side (sidestep) [DRSC14717] → Outcome = inactive
side (sidestep) [DRSC14718] → Outcome = inactive
side (sidestep) [DRSC14721] → Outcome = inactive
Polr1A (RNA polymerase I subunit A) [DRSC07535] → Outcome = inactive
Smug [DRSC15762] → Outcome = inactive
CG43328 [DRSC05640] → Outcome = inactive
CG15544 [DRSC15082] → Outcome = inactive
CG4404 [DRSC19897] → Outcome = inactive
Mp (Multiplexin) [DRSC10193] → Outcome = inactive
Mp (Multiplexin) [DRSC11029] → Outcome = inactive
Mp (Multiplexin) [DRSC11030] → Outcome = inactive
Paip1 (Poly(A) binding protein interacting protein 1) [DRSC07302] → Outcome = inactive
Elp5 (Elongator complex protein 5) [DRSC08547] → Outcome = inactive
Gr93b (Gustatory receptor 93b) [DRSC22063] → Outcome = inactive
CG13461 [DRSC10008] → Outcome = inactive
